Laboratory results: PubChem BioAssay AID1224831 (NIAID, 2016)
This is an unselected part of about 3,500 reagents tested. 731 of all reagents (21%) count as active. 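Active means either lowered or raised reporter signal; the gene-median score did not drive the per-siRNA calls.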 Reagents against one gene are numbered here. Reagent sequences are not shown.

- Test: 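Retesting screen hits on the TLR4-driven TNF response with six separate siRNAs each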 (follow-up of hits)
- System: human THP-1 B5 monocytic leukaemia cells carrying a TNF promoter luciferase reporter, made macrophage-like with PMA
- Reagent: single siRNA against human genes, 50 nM
- Time to read-out: about 68 h of knock-down, then 4 h LPS
- Treatment: LPS (Salmonella minnesota, TLR-grade) at 10 ng/ml for 4 h; PMA 5 ng/ml present during knock-down
- Read-out: 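Firefly to renilla luciferase ratio of a TNF promoter reporter after 4 h LPS, scaled to plate median, turned into robust z-score, averaged over replicates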
- Reading the numbers: TNF reporter z-score: higher = stronger LPS-induced TNF reporter signal; z-score, median over gene's siRNAs: higher = stronger TNF reporter signal across the gene's siRNAs
- Hit rule: 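Two-sided call: reduced or raised TNF reporter signal counts as active once mean z reaches about -1 or below, or about 1.5 or above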
- Meaning of the calls: active = changed TNF reporter (either direction); inactive = little change

TAC4 (GeneID 255061) #1 showed TNF reporter z-score, replicate mean -0.56; z-score, median over gene's siRNAs -0.425; inactive.
Silencing of TAC4 (GeneID 255061) #2 gave: TNF reporter z-score, replicate mean 0.4; z-score, median over gene's siRNAs -0.425; inactive.
TAC4 (GeneID 255061) #3 showed TNF reporter z-score, replicate mean -0.32; z-score, median over gene's siRNAs -0.425; inactive.
After knock-down of TAC4 (GeneID 255061) #4, the record shows TNF reporter z-score, replicate mean -0.37; z-score, median over gene's siRNAs -0.425; inactive.
Depletion of TAC4 (GeneID 255061) #5 came out at: TNF reporter z-score, replicate mean -0.48; z-score, median over gene's siRNAs -0.425; inactive.
TAC4 (GeneID 255061) #6 gave TNF reporter z-score, replicate mean -1.43; z-score, median over gene's siRNAs -0.425; active.
For HEATR4 (GeneID 399671) #1, the entry reads TNF reporter z-score, replicate mean 0.34; z-score, median over gene's siRNAs 0.53; inactive.
Depletion of HEATR4 (GeneID 399671) #2 resulted in: TNF reporter z-score, replicate mean 0.58; z-score, median over gene's siRNAs 0.53; inactive.
HEATR4 (GeneID 399671) #3 showed TNF reporter z-score, replicate mean 2.7; z-score, median over gene's siRNAs 0.53; active.
Silencing of HEATR4 (GeneID 399671) #4 resulted in: TNF reporter z-score, replicate mean 0.48; z-score, median over gene's siRNAs 0.53; inactive.
Knock-down of HEATR4 (GeneID 399671) #5 gave: TNF reporter z-score, replicate mean -0.9; z-score, median over gene's siRNAs 0.53; inactive.
HEATR4 (GeneID 399671) #6 gave TNF reporter z-score, replicate mean 1.27; z-score, median over gene's siRNAs 0.53; inactive.
After knock-down of KLF12 (GeneID 11278) #1, the record shows TNF reporter z-score, replicate mean 1.83; z-score, median over gene's siRNAs 0.41; active.
Silencing of KLF12 (GeneID 11278) #2 resulted in: TNF reporter z-score, replicate mean 0.66; z-score, median over gene's siRNAs 0.41; inactive.
KLF12 (GeneID 11278) #3 gave TNF reporter z-score, replicate mean -0.59; z-score, median over gene's siRNAs 0.41; inactive.
KLF12 (GeneID 11278) #4 scored TNF reporter z-score, replicate mean -0.18; z-score, median over gene's siRNAs 0.41; inactive.
With knock-down of KLF12 (GeneID 11278) #5 the results were TNF reporter z-score, replicate mean 1.71; z-score, median over gene's siRNAs 0.41; active.
For KLF12 (GeneID 11278) #6 the deposit lists TNF reporter z-score, replicate mean 0.16; z-score, median over gene's siRNAs 0.41; inactive.
For TLK2 (GeneID 11011) #1 the deposit lists TNF reporter z-score, replicate mean 0.23; z-score, median over gene's siRNAs 0.73; inactive.
Knock-down of TLK2 (GeneID 11011) #2 came out at: TNF reporter z-score, replicate mean 0.51; z-score, median over gene's siRNAs 0.73; inactive.
TLK2 (GeneID 11011) #3 gave TNF reporter z-score, replicate mean 2.44; z-score, median over gene's siRNAs 0.73; active.
TLK2 (GeneID 11011) #4 scored TNF reporter z-score, replicate mean 0.95; z-score, median over gene's siRNAs 0.73; inactive.
TLK2 (GeneID 11011) #5 showed TNF reporter z-score, replicate mean -1.49; z-score, median over gene's siRNAs 0.73; active.
After knock-down of TLK2 (GeneID 11011) #6 the results were TNF reporter z-score, replicate mean 1.7; z-score, median over gene's siRNAs 0.73; active.
IQCF3 (GeneID 401067) #1 showed TNF reporter z-score, replicate mean -0.22; z-score, median over gene's siRNAs 0.23; inactive.
With knock-down of IQCF3 (GeneID 401067) #2, the record shows TNF reporter z-score, replicate mean 0.68; z-score, median over gene's siRNAs 0.23; inactive.
Depletion of IQCF3 (GeneID 401067) #3 came out at: TNF reporter z-score, replicate mean -1.09; z-score, median over gene's siRNAs 0.23; active.
Knock-down of IQCF3 (GeneID 401067) #4 came out at: TNF reporter z-score, replicate mean -0.38; z-score, median over gene's siRNAs 0.23; inactive.
After knock-down of IQCF3 (GeneID 401067) #5, the record shows TNF reporter z-score, replicate mean 1.75; z-score, median over gene's siRNAs 0.23; active.
With knock-down of IQCF3 (GeneID 401067) #6 the results were TNF reporter z-score, replicate mean 1.24; z-score, median over gene's siRNAs 0.23; inactive.
Against RSRC2 (GeneID 65117) #1, the entry reads TNF reporter z-score, replicate mean 0.63; z-score, median over gene's siRNAs 0.485; inactive.
Silencing of RSRC2 (GeneID 65117) #2 came out at: TNF reporter z-score, replicate mean 0.34; z-score, median over gene's siRNAs 0.485; inactive.
Against RSRC2 (GeneID 65117) #3, the entry reads TNF reporter z-score, replicate mean 0.45; z-score, median over gene's siRNAs 0.485; inactive.
With knock-down of RSRC2 (GeneID 65117) #4, the record shows TNF reporter z-score, replicate mean -0.17; z-score, median over gene's siRNAs 0.485; inactive.
RSRC2 (GeneID 65117) #5 scored TNF reporter z-score, replicate mean 0.52; z-score, median over gene's siRNAs 0.485; inactive.
Depletion of RSRC2 (GeneID 65117) #6 gave: TNF reporter z-score, replicate mean 0.63; z-score, median over gene's siRNAs 0.485; inactive.
Against MERTK (GeneID 10461) #1, the values are TNF reporter z-score, replicate mean 0.07; z-score, median over gene's siRNAs 0.28; inactive.
Knock-down of MERTK (GeneID 10461) #2 gave: TNF reporter z-score, replicate mean -0.05; z-score, median over gene's siRNAs 0.28; inactive.
Silencing of MERTK (GeneID 10461) #3 gave: TNF reporter z-score, replicate mean 1.53; z-score, median over gene's siRNAs 0.28; active.
For MERTK (GeneID 10461) #4, the values are TNF reporter z-score, replicate mean -0.38; z-score, median over gene's siRNAs 0.28; inactive.
Against MERTK (GeneID 10461) #5, the values are TNF reporter z-score, replicate mean 0.49; z-score, median over gene's siRNAs 0.28; inactive.
MERTK (GeneID 10461) #6 showed TNF reporter z-score, replicate mean 2.08; z-score, median over gene's siRNAs 0.28; active.
KCNJ5 (GeneID 3762) #1 scored TNF reporter z-score, replicate mean -0.81; z-score, median over gene's siRNAs 0.33; inactive.
After knock-down of KCNJ5 (GeneID 3762) #2, the screen gave TNF reporter z-score, replicate mean 0.78; z-score, median over gene's siRNAs 0.33; inactive.
KCNJ5 (GeneID 3762) #3 showed TNF reporter z-score, replicate mean -0.15; z-score, median over gene's siRNAs 0.33; inactive.
Silencing of KCNJ5 (GeneID 3762) #4 came out at: TNF reporter z-score, replicate mean 0.47; z-score, median over gene's siRNAs 0.33; inactive.
With knock-down of KCNJ5 (GeneID 3762) #5, the screen gave TNF reporter z-score, replicate mean 0.76; z-score, median over gene's siRNAs 0.33; inactive.
With knock-down of KCNJ5 (GeneID 3762) #6 the results were TNF reporter z-score, replicate mean 0.19; z-score, median over gene's siRNAs 0.33; inactive.
HSFX1 (GeneID 100506164) #1 gave TNF reporter z-score, replicate mean -0.53; z-score, median over gene's siRNAs -0.5; inactive.
HSFX1 (GeneID 100506164) #2 showed TNF reporter z-score, replicate mean -0.24; z-score, median over gene's siRNAs -0.5; inactive.
Against HSFX1 (GeneID 100506164) #3 the deposit lists TNF reporter z-score, replicate mean -0.62; z-score, median over gene's siRNAs -0.5; inactive.
Knock-down of HSFX1 (GeneID 100506164) #4 came out at: TNF reporter z-score, replicate mean -0.47; z-score, median over gene's siRNAs -0.5; inactive.
HSFX1 (GeneID 100506164) #5 showed TNF reporter z-score, replicate mean -0.57; z-score, median over gene's siRNAs -0.5; inactive.
For HSFX1 (GeneID 100506164) #6, the entry reads TNF reporter z-score, replicate mean 2.04; z-score, median over gene's siRNAs -0.5; active.

A run of entries from the list above, as a working copy:
KLF12 (GeneID 11278) #6: TNF reporter z-score, replicate mean = 0.16; z-score, median over gene's siRNAs = 0.41; Call = inactive
TLK2 (GeneID 11011) #1: TNF reporter z-score, replicate mean = 0.23; z-score, median over gene's siRNAs = 0.73; Call = inactive
TLK2 (GeneID 11011) #2: TNF reporter z-score, replicate mean = 0.51; z-score, median over gene's siRNAs = 0.73; Call = inactive
TLK2 (GeneID 11011) #3: TNF reporter z-score, replicate mean = 2.44; z-score, median over gene's siRNAs = 0.73; Call = active
